Laboratory results: PMC8227659, “The Metarhizium anisopliae Toxin, Destruxin A, Interacts with the SEC23A and TEME214 Proteins of Bombyx mori” (Journal of Fungi, 2021)
No constants are given. Whether binding was seen depends on the method and setting. Binding can be weak; no strength is given.

Molecular target: Bombyx mori SEC13-like protein (BmSEC13L) (Bombyx mori (silkworm)) (UniProt Q1HPY4)
Experiment: two-hybrid; insect two-hybrid (I2H) in Sf9 cells at 27 °C; pIE-AD and pIE-DBD fusions co-transfected with a luciferase reporter vector; after 24 h destruxin A (0.0002-2 µg/mL) or DMSO only (CK) added; luciferase activity of cell extracts read 24 h later

binding: binds
Substance: Bombyx mori transmembrane protein 214 (BmTMEM214) (from UniProt A0A8R1WLS5)
